Data: the supplement of paper PMC12823440, “Inhibitors supercharge kinase turnover through native proteolytic circuits” (Nature, 2025)
Counter-ions that a name gives are not always drawn. The list shows a part of the results. The calls rarely recur for the same compound in another form.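 Kinases, fused to nanoluciferase, were expressed in K562 cells; luminescence was measured every 4 h from 2 to 18 h as percent of control (DMSO = 100%, positive control = 0%). A time point is decreased if signal falls significantly (2 sigma). Hits were called by the authors by a rule that is not shown; the count of time points alone does not decide it.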

Sequences of proteins named here, by UniProt entry; tags and fusion partners are left off.
UniProt Q05397, whole entry, looked up: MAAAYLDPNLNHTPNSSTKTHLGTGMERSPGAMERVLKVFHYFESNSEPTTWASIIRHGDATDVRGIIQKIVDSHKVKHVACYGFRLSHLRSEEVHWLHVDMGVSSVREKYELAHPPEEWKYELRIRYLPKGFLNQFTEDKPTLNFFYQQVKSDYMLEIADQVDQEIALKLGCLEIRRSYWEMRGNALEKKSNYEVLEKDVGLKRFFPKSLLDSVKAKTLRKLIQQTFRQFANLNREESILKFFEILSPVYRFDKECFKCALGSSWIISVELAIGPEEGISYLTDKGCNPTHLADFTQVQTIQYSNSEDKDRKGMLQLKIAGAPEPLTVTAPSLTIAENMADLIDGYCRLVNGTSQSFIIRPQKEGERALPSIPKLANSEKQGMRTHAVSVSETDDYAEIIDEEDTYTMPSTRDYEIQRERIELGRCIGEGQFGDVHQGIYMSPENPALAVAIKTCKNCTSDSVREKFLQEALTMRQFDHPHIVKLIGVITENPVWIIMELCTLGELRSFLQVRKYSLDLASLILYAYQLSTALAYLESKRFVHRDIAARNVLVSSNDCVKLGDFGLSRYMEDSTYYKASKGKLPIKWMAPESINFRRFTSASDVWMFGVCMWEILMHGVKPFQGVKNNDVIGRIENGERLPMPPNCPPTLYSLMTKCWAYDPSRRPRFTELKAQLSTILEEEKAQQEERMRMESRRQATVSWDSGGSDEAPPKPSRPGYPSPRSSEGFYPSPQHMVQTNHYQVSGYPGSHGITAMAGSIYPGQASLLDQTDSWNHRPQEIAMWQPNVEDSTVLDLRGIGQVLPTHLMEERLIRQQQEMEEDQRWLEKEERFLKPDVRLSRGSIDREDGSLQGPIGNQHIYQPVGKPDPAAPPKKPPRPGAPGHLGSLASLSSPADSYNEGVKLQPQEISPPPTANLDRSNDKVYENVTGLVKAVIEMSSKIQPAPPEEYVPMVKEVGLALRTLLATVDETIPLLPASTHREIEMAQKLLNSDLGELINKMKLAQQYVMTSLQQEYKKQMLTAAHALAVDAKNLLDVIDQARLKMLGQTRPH

Molecular target: PTK2 (UniProt Q05397)
Assay: number of time points (of 5) at which kinase-Nluc abundance scored as decreased, DMSO-normalised (count); higher = more persistent destabilization
Conditions: K562; 2-18 h

Row | Compound | number of time points
1 | C[C@H](Nc1ncnc2[nH]cnc12)c1nc2ccc(F)cc2c(=O)n1-c1ccccc1 [Acalisib] (10 µM) | 0
2 | O=C1c2ccccc2C(=O)c2c1cccc2-c1cnn(C2CCNCC2)c1 [PDK4-IN-1 (hydrochloride)] (10 µM) | 0
3 | Cc1ccccc1-n1c(Cn2ncc3c(N)ncnc32)nc2cccc(C)c2c1=O (10 µM) | 0
4 | Nc1ncnc2c1ncn2[C@@H]1O[C@@H]2COP(O)(=S)O[C@H]2[C@H]1O (stereo partly specified) [Sp-cAMPS (sodium salt)] (10 µM) | 0
5 | CN(C)C(=O)c1ccc(Cn2c(C(=O)O)cc3c(Br)cc(Sc4ccc(Cl)c(Cl)c4)cc32)cc1 [Rheb inhibitor NR1] (10 µM) | 0
6 | C/C=C(/C)C(=O)O[C@H]1[C@@H]2[C@H](C)C(=O)O[C@@H]2C[C@@H](C)[C@@H]2C=CC(=O)[C@]21C [Brevilin A] (2.5 µM) | 0
